Assay results published in PubChem BioAssay AID256 (DTP/NCI, 2004).
The list does not hold the whole screen: it gathers tests that were run many times, whatever their T/C, doses with no T/C, and many T/C values between a quarter and a half above the control. Other doses and runs of a compound stand elsewhere. T/C: endpoint of the treated group in % of that of the vehicle group. Some doses have a count of surviving animals in place of a T/C: the source holds a T/C of zero for them, seemingly a mark for toxic or unscored doses. Some survivor counts are full or nearly so, which does not show that the dose was tolerated: the source hardly ever lists a survival T/C far under the control, and the zero likely stands for such cases as well. Counts of survivors are from the toxicity check (mostly the fifth day) where no day follows; animals may have died later. Schedule codes are those of the source, taken here to give the interval after Q, in days (D) or hours (H), and the number of doses after X. Some structures stand for samples that the source files as different forms (salt, stereo form or complex); doses refer to the form tested. Some entries were tested several times; their values stand side by side, smallest first. For survival time, the PubChem record calls one and a half times the control and up active, and a quarter to a half above the control has no call in these data; cut-offs in other NCI protocols can differ. Some T/C values carry the count of animals alive at the toxicity check (mostly the fifth day); without a count, all were alive then.

System: CD2F1 mice, L1210 leukemia ip, survival T/C
Assay: NCI In Vivo Anticancer Drug Screen. Data for tumor model L1210 Leukemia (intraperitoneal) in CD2F1 (CDF1) mice
Settings: higher T/C = longer survival
Summary of the method: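 Transplantable tumor in mice; compound-treated vs vehicle-treated groups. Read-out = treated/control ratio of the measured endpoint.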

[1] = T/C endpoint: mean survival time, dose: 200.0 mg/kg/injection, schedule: Q04DX003 (ip), vehicle: saline with Tween-80
[2] = T/C endpoint: mean survival time, dose: 400.0 mg/kg/injection, schedule: Q04DX003 (ip), vehicle: saline with Tween-80
[3] = T/C endpoint: mean survival time, dose: 50.0 mg/kg/injection, schedule: Q01DX009 (ip), vehicle: water
[4] = T/C endpoint: mean survival time, dose: 100.0 mg/kg/injection, schedule: Q01DX009 (ip), vehicle: water
[5] = T/C endpoint: mean survival time, dose: 200.0 mg/kg/injection, schedule: Q01DX009 (ip), vehicle: saline
[6] = T/C endpoint: median survival time, dose: 350.0 mg/kg/injection, schedule: Q01DX009 (ip), vehicle: saline
[7] = T/C endpoint: mean survival time, dose: 100.0 mg/kg/injection, schedule: Q04DX003 (ip), vehicle: saline with Tween-80

S=C([S-])N1CCCCC1.S=C([S-])N1CCCCC1.[Zn]
survivor count (T/C endpoint: mean survival time, dose: 75.0 mg/kg/injection, schedule: Q01DX009 (ip), vehicle: saline): 1 of 6

CC1=[N+]([O-])[N+]([O-])=C(C)C1=O
survivor count (T/C endpoint: mean survival time, dose: 50.0 mg/kg/injection, schedule: Q01DX009 (ip), vehicle: Klucel (hydroxypropylcellulose) (HPC)): 0 of 3
survivor count (T/C endpoint: mean survival time, dose: 100.0 mg/kg/injection, schedule: Q01DX009 (ip), vehicle: Klucel (hydroxypropylcellulose) (HPC)): 0 of 3
survivor count (T/C endpoint: mean survival time, dose: 200.0 mg/kg/injection, schedule: Q01DX009 (ip), vehicle: Klucel (hydroxypropylcellulose) (HPC)): 0 of 3

C=CCNC(=O)c1ccc[n+](CC(=O)Nc2ccccc2)c1
survivor count [1]: 3 of 6
survivor count [2]: 0 of 6

CCN(CC)CCCC(C)NCCCCNC(C)CCCN(CC)CC (stereo unspecified)
survivor count [3]: 2 of 6
survivor count [4]: 0 of 6
survivor count (T/C endpoint: mean survival time, dose: 200.0 mg/kg/injection, schedule: Q01DX009 (ip), vehicle: water): 0 of 6

O=P(Oc1ccccc1)(Oc1ccccc1)N(CCCl)CCCl
T/C [3]: 125 % of control
T/C [4]: 146 % of control [5 of 6 alive]
survivor count (T/C endpoint: mean survival time, dose: 400.0 mg/kg/injection, schedule: Q01DX009 (ip), vehicle: water): 0 of 6 and 1 of 6
survivor count (T/C endpoint: mean survival time, dose: 500.0 mg/kg/injection, schedule: Q01DX001 (ip), vehicle: distilled water + Tween-80): 3 of 6
survivor count (T/C endpoint: mean survival time, dose: 750.0 mg/kg/injection, schedule: Q01DX001 (ip), vehicle: distilled water + Tween-80): 0 of 6

C/C=C/CC1(Cc2ccccc2)C(=O)NC(=S)NC1=O
survivor count (T/C endpoint: mean survival time, dose: 38.0 mg/kg/injection, schedule: Q01DX001 (ip), vehicle: other): 3 of 6

NC(N)=N/N=C(/c1ccccc1)c1ccc(F)cc1
survivor count (T/C endpoint: mean survival time, dose: 100.0 mg/kg/injection, schedule: Q01DX009 (ip), vehicle: saline): 4 of 6
survivor count [5]: 0 of 6
survivor count (T/C endpoint: mean survival time, dose: 400.0 mg/kg/injection, schedule: Q01DX009 (ip), vehicle: saline): 0 of 6

CC(CNC1CCCCC1)OC(=O)c1ccc(N)cc1 (stereo unspecified)
survivor count (T/C endpoint: mean survival time, dose: 150.0 mg/kg/injection, schedule: Q01DX001 (ip), vehicle: saline): 0 of 6
survivor count (T/C endpoint: mean survival time, dose: 300.0 mg/kg/injection, schedule: Q01DX001 (ip), vehicle: saline): 0 of 6

Nc1nc(F)nc2c1ncn2C1OC(COP(=O)(O)O)C(O)C1O (stereo unspecified)
T/C (T/C endpoint: mean survival time, dose: 59.32 mg/kg/injection, schedule: Q01DX009 (ip), vehicle: saline with Tween-80): 144 % of control
T/C (T/C endpoint: mean survival time, dose: 59.32 mg/kg/injection, schedule: Q01DX009 (ip), vehicle: saline): 128 % of control
T/C (T/C endpoint: mean survival time, dose: 60.0 mg/kg/injection, schedule: Q01DX009 (ip), vehicle: saline): 125 and 127 % of control
T/C (T/C endpoint: mean survival time, dose: 88.98 mg/kg/injection, schedule: Q01DX009 (ip), vehicle: saline): 126 % of control
T/C (T/C endpoint: mean survival time, dose: 90.0 mg/kg/injection, schedule: Q01DX009 (ip), vehicle: saline): 132 and 133 % of control
T/C [5]: 149 % of control
T/C (T/C endpoint: mean survival time, dose: 256.0 mg/kg/injection, schedule: Q01DX009 (ip), vehicle: saline): 133 % of control
survivor count (T/C endpoint: mean survival time, dose: 300.0 mg/kg/injection, schedule: Q01DX009 (ip), vehicle: saline with Tween-80): 5 of 6
survivor count (T/C endpoint: mean survival time, dose: 300.0 mg/kg/injection, schedule: Q01DX009 (ip), vehicle: saline): 5 of 6
T/C (T/C endpoint: median survival time, dose: 25.0 mg/kg/injection, schedule: Q03HX024 (ip), vehicle: sodium bicarbonate): 126 % of control
T/C (T/C endpoint: median survival time, dose: 50.0 mg/kg/injection, schedule: Q03HX008 (ip), vehicle: sodium bicarbonate): 132 % of control
T/C (T/C endpoint: median survival time, dose: 60.0 mg/kg/injection, schedule: Q01DX009 (ip), vehicle: saline, evaluated on day 30): 142 % of control
T/C (T/C endpoint: median survival time, dose: 60.0 mg/kg/injection, schedule: Q01DX009 (ip), vehicle: saline, evaluated on day 60): 145 % of control
T/C (T/C endpoint: median survival time, dose: 70.0 mg/kg/injection, schedule: Q01DX009 (ip), vehicle: saline): 127 and 135 % of control
T/C (T/C endpoint: median survival time, dose: 74.1 mg/kg/injection, schedule: Q01DX009 (ip), vehicle: saline): 145 % of control
T/C (T/C endpoint: median survival time, dose: 75.0 mg/kg/injection, schedule: Q03HX008 (ip), vehicle: sodium bicarbonate): 138 % of control
T/C (T/C endpoint: median survival time, dose: 105.0 mg/kg/injection, schedule: Q01DX009 (ip), vehicle: saline): 146 % of control
T/C (T/C endpoint: median survival time, dose: 118.0 mg/kg/injection, schedule: Q01DX005 (iv), vehicle: sodium bicarbonate): 137 % of control
T/C (T/C endpoint: median survival time, dose: 200.0 mg/kg/injection, schedule: Q01DX005 (oral), vehicle: sodium bicarbonate): 132 % of control [9 of 10 alive]
T/C (T/C endpoint: median survival time, dose: 234.0 mg/kg/injection, schedule: Q01DX009 (ip), vehicle: saline): 127 % of control
T/C (T/C endpoint: median survival time, dose: 266.0 mg/kg/injection, schedule: Q01DX001 (iv), vehicle: sodium bicarbonate): 126 % of control
T/C (T/C endpoint: median survival time, dose: 333.0 mg/kg/injection, schedule: Q01DX009 (ip), vehicle: saline): 142 % of control
T/C [6]: 135 % of control
survivor count [6]: 6 of 6
T/C (T/C endpoint: median survival time, dose: 400.0 mg/kg/injection, schedule: Q01DX001 (ip), vehicle: sodium bicarbonate): 128 % of control
T/C (T/C endpoint: median survival time, dose: 400.0 mg/kg/injection, schedule: Q01DX005 (ip), vehicle: sodium bicarbonate): 125 % of control
T/C (T/C endpoint: median survival time, dose: 400.0 mg/kg/injection, schedule: Q01DX005 (oral), vehicle: sodium bicarbonate): 132 % of control [8 of 10 alive]
T/C (T/C endpoint: median survival time, dose: 600.0 mg/kg/injection, schedule: Q01DX001 (ip), vehicle: sodium bicarbonate): 125 % of control
T/C (T/C endpoint: median survival time, dose: 600.0 mg/kg/injection, schedule: Q01DX001 (iv), vehicle: sodium bicarbonate): 128 % of control
survivor count (T/C endpoint: median survival time, dose: 600.0 mg/kg/injection, schedule: Q01DX005 (ip), vehicle: sodium bicarbonate): 8 of 9
survivor count (T/C endpoint: median survival time, dose: 600.0 mg/kg/injection, schedule: Q01DX005 (iv), vehicle: sodium bicarbonate): 3 of 10
T/C (T/C endpoint: median survival time, dose: 800.0 mg/kg/injection, schedule: Q01DX001 (ip), vehicle: saline): 129 % of control [9 of 10 alive]
T/C (T/C endpoint: median survival time, dose: 900.0 mg/kg/injection, schedule: Q01DX001 (ip), vehicle: sodium bicarbonate): 142 % of control
survivor count (T/C endpoint: median survival time, dose: 900.0 mg/kg/injection, schedule: Q01DX001 (iv), vehicle: sodium bicarbonate): 5 of 10
T/C (T/C endpoint: median survival time, dose: 1000.0 mg/kg/injection, schedule: Q04DX003 (ip), vehicle: sodium bicarbonate): 141 % of control [9 of 10 alive]
T/C (T/C endpoint: median survival time, dose: 1200.0 mg/kg/injection, schedule: Q01DX001 (ip), vehicle: saline): 147 % of control [9 of 10 alive]
survivor count (T/C endpoint: median survival time, dose: 1350.0 mg/kg/injection, schedule: Q01DX001 (ip), vehicle: sodium bicarbonate): 6 of 10
survivor count (T/C endpoint: median survival time, dose: 1350.0 mg/kg/injection, schedule: Q01DX001 (iv), vehicle: sodium bicarbonate): 2 of 10
T/C (T/C endpoint: median survival time, dose: 1500.0 mg/kg/injection, schedule: Q01DX001 (ip), vehicle: saline): 146 % of control [7 of 10 alive]
survivor count (T/C endpoint: median survival time, dose: 1800.0 mg/kg/injection, schedule: Q01DX001 (ip), vehicle: saline): 6 of 10

O=C(O)c1cc(CBr)ccc1CBr
survivor count [7]: 3 of 6
survivor count [1]: 0 of 6
survivor count [2]: 0 of 6

Nc1cccc(C(=O)c2ccc(-c3nc4ncnc(N)c4[nH]3)cc2)c1
survivor count [7]: 6 of 6
survivor count [1]: 5 of 6
survivor count [2]: 6 of 6
